We go through two sequences from PMC6358972.

Series [1] deals with T1, StAREB1t (truncated, bZIP-containing) (Solanum tuberosum) (UniProt A0ABQ7WS50).
T1 sequence (looked up, limits assumed): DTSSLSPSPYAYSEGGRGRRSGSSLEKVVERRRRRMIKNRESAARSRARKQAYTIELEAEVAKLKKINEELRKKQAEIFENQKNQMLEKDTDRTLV
Briefly: EMSA. Particulars: recombinant protein; protein details: N-terminal GST (pET42b); label: FAM (probe, competitor unlabeled).

Series [2] has as its target T2, StAREB3t (truncated, bZIP-containing) (Solanum tuberosum) (UniProt M1A6S2).
T2 sequence (looked up, limits assumed): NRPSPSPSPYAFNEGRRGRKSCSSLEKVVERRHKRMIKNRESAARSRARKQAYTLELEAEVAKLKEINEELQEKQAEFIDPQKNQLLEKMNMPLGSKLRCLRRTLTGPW
Briefly: EMSA. To be noted: recombinant protein; protein details: N-terminal GST (pET42b); label: FAM (probe, competitor unlabeled). For orientation: Mobility shift assays separate free from complexed probe on a gel.

In series [3] the test system is StABL2 (Solanum tuberosum). Briefly: EMSA. To be noted: recombinant protein; protein details: N-terminal GST (pET42b); label: FAM (probe, competitor unlabeled).
In series [4] the test system is StABI5 (truncated, bZIP-containing) (Solanum tuberosum). The series can be described thus: EMSA. To be noted: recombinant protein; protein details: N-terminal GST (pET42b); label: FAM (probe, competitor unlabeled).
For series [5], the system named is GST. Briefly: EMSA. Particulars: recombinant protein; label: FAM (probe, competitor unlabeled).
Series [6] deals with T3, StAREB4t (truncated, bZIP-containing) (Solanum tuberosum) (UniProt M1C3P5).
T3 sequence (looked up, limits assumed): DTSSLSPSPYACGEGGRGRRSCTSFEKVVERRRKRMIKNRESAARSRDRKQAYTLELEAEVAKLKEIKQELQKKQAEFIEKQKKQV
The series can be described thus: EMSA. Particulars: recombinant protein; protein details: N-terminal GST (pET42b); label: FAM (probe, competitor unlabeled).

In series [7] the test system is StABL1 (Solanum tuberosum). The series can be described thus: EMSA. To be noted: recombinant protein; protein details: N-terminal GST (pET42b); label: FAM (probe, competitor unlabeled).
In series [8] the target is T4, StAREB2t (truncated, bZIP-containing) (Solanum tuberosum) (UniProt A0A3Q7GA77).
T4 sequence (looked up, limits assumed): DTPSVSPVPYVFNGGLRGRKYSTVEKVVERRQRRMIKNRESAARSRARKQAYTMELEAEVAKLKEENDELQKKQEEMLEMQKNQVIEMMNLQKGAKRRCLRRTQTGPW
Briefly: EMSA. To be noted: recombinant protein; protein details: N-terminal GST (pET42b); label: FAM (probe, competitor unlabeled).

Series [9] addresses T1, StAREB1t (truncated, bZIP-containing) (Solanum tuberosum). Briefly: competition with a labelled probe. Particulars: 50- and 100-fold excess over ABRE probe; recombinant protein; protein details: N-terminal GST (pET42b); label: unlabeled competitor.
For series [10], the target named is T2, StAREB3t (truncated, bZIP-containing) (Solanum tuberosum). The series can be described thus: competition with a labelled probe. To be noted: 50- and 100-fold excess over ABRE probe; recombinant protein; protein details: N-terminal GST (pET42b); label: unlabeled competitor.
Series [11] has as its system StABL2 (Solanum tuberosum). Briefly: competition with a labelled probe. To be noted: 50- and 100-fold excess over ABRE probe; recombinant protein; protein details: N-terminal GST (pET42b); label: unlabeled competitor.
Series [12] concerns StABI5 (truncated, bZIP-containing) (Solanum tuberosum). The series can be described thus: competition with a labelled probe. To be noted: 50- and 100-fold excess over ABRE probe; recombinant protein; protein details: N-terminal GST (pET42b); label: unlabeled competitor.
Series [13] deals with T3, StAREB4t (truncated, bZIP-containing) (Solanum tuberosum). The series can be described thus: competition with a labelled probe. To be noted: 50- and 100-fold excess over ABRE probe; recombinant protein; protein details: N-terminal GST (pET42b); label: unlabeled competitor.
In series [14] the test system is StABL1 (Solanum tuberosum). The series can be described thus: competition with a labelled probe. Particulars: 50- and 100-fold excess over ABRE probe; recombinant protein; protein details: N-terminal GST (pET42b); label: unlabeled competitor.
Series [15] has as its target T4, StAREB2t (truncated, bZIP-containing) (Solanum tuberosum). The series can be described thus: competition with a labelled probe. Particulars: 50- and 100-fold excess over ABRE probe; recombinant protein; protein details: N-terminal GST (pET42b); label: unlabeled competitor.

The exact form of at least one protein or probe is not confirmed. For part of these data: No signal at the amounts used counts as a negative. For part of these data: At least one verdict was read from the data and is not stated in words by the source. For part of these data: Where a protein sequence is shown, tags need not be part of it.

Consider “AATTCCGGACACGTGGCGTAAGCT (double strand) [ABRE (Em1a element)]”, for which the binding result in series [1] was “binds”; in [2], “binds”; in series [3], “binds”; in [4], “binds”; in [5], “no binding”; in [6] it was “binds”. In addition, the binding result in series [7] and in [8] was “binds” in each case.

“AATTCCGGACCTACAGCCTAAGCT (double strand) [mABRE]”: the binding result in series [9], in series [10], in [11], in [12], in series [13] and in series [14] was “no binding” throughout. In series [15], the binding result is “no binding”.
